Test results taken from paper PMC5144080.
Results are given in words; binding and its absence hold for the method and conditions named. In cells and extracts the contact can be indirect. Some binding calls cover weakened binding; strength is not graded here.

Amino acid sequences for entries named in this document (tags omitted). A change or cut given only in a name is not applied to a line headed by its entry. Chains listed by the source or under a name are the forms on record and can include a tag or linker.
UniProt Q9Y6K9: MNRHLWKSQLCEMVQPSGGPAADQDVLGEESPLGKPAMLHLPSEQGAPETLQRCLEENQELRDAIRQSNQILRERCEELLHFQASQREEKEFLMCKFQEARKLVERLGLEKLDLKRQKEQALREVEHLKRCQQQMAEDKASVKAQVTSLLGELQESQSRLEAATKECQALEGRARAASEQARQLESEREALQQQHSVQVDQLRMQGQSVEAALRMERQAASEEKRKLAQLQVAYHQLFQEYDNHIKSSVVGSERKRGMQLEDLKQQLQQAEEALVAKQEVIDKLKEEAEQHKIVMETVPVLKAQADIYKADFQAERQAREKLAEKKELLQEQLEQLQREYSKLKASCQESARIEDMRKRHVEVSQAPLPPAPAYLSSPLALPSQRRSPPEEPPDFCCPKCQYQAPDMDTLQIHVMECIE
GFP-tagged triple-mutated NEMO-S8, 17, 31A (Q9Y6K9, form named): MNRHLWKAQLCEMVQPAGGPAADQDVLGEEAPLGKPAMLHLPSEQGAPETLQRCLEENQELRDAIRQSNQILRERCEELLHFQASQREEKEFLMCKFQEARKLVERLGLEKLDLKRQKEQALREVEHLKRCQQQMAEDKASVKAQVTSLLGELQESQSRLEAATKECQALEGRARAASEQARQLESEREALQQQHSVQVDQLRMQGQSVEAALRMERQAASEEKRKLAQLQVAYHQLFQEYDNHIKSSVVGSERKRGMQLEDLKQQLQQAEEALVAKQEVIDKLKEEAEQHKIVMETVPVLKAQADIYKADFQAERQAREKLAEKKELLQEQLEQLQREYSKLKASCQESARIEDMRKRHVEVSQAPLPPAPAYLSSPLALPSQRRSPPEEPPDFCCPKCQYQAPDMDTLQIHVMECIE

B1: IKKα, endogenous, O15111 1-745 (enzyme)
chain: MERPPGLRPGAGGPWEMRERLGTGGFGNVCLYQHRELDLKIAIKSCRLELSTKNRERWCHEIQIMKKLNHANVVKACDVPEELNILIHDVPLLAMEYCSGGDLRKLLNKPENCCGLKESQILSLLSDIGSGIRYLHENKIIHRDLKPENIVLQDVGGKIIHKIIDLGYAKDVDQGSLCTSFVGTLQYLAPELFENKPYTATVDYWSFGTMVFECIAGYRPFLHHLQPFTWHEKIKKKDPKCIFACEEMSGEVRFSSHLPQPNSLCSLVVEPMENWLQLMLNWDPQQRGGPVDLTLKQPRCFVLMDHILNLKIVHILNMTSAKIISFLLPPDESLHSLQSRIERETGINTGSQELLSETGISLDPRKPASQCVLDGVRGCDSYMVYLFDKSKTVYEGPFASRSLSDCVNYIVQDSKIQLPIIQLRKVWAEAVHYVSGLKEDYSRLFQGQRAAMLSLLRYNANLTKMKNTLISASQQLKAKLEFFHKSIQLDLERYSEQMTYGISSEKMLKAWKEMEEKAIHYAEVGVIGYLEDQIMSLHAEIMELQKSPYGRRQGDLMESLEQRAIDLYKQLKHRPSDHSYSDSTEMVKIIVHTVQSQDRVLKELFGHLSKLLGCKQKIIDLLPKVEVALSNIKEADNTVMFMQGKRQKEIWHLLKIACTQSSARSLVGSSLEGAVTPQTSAWLPPTSAEHDHSLSCVVTPQDGETSAQMIEENLNCLGHLSTIIHEANEEQGNSMMNLDWSWLTE
B2: p47, endogenous (protein, UniProt Q9UNZ2 1-370)
chain: MAAERQEALREFVAVTGAEEDRARFFLESAGWDLQIALASFYEDGGDEDIVTISQATPSSVSRGTAPSDNRVTSFRDLIHDQDEDEEEEEGQRFYAGGSERSGQQIVGPPRKKSPNELVDDLFKGAKEHGAVAVERVTKSPGETSKPRPFAGGGYRLGAAPEEESAYVAGEKRQHSSQDVHVVLKLWKSGFSLDNGELRSYQDPSNAQFLESIRRGEVPAELRRLAHGGQVNLDMEDHRDEDFVKPKGAFKAFTGEGQKLGSTAPQVLSTSSPAQQAENEAKASSSILIDESEPTTNIQIRLADGGRLVQKFNHSHRISDIRLFIVDARPAMAATSFILMTTFPNKELADESQTLKEANLLNAVIVQRLT

Tests used:
[1] = molecular target: GFP-tagged wild-type NEMO (human), Q9Y6K9; assay: co-IP; HEK293 cells transfected with GFP-tagged wild-type or S8, 17, 31A NEMO; anti-GFP immunoprecipitation (GFP Isolation Kit, Miltenyi); resting or TNFα-stimulated (10 ng/ml) cells; for p47, co-transfected with HA-tagged ubiquitin species; immunoblotting; settings: remark: other sources report otherwise
[2] = molecular target: GFP-tagged triple-mutated NEMO-S8, 17, 31A (human) (UniProt Q9Y6K9); assay: as above

Binder	binding [1]	binding [2]
B1	binds	–
B2	–	binds
